Measured values published in the supplement of paper PMC12823440, “Inhibitors supercharge kinase turnover through native proteolytic circuits” (Nature, 2025).
The list shows a part of the results. Hit calls seldom repeat between salt and free forms of one compound.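 Kinases, fused to nanoluciferase, were expressed in K562 cells; luminescence was measured every 4 h from 2 to 18 h as percent of control (DMSO = 100%, positive control = 0%). A time point is decreased if signal falls significantly (2 sigma). Hits were called by the authors by a rule that is not shown; the count of time points alone does not decide it.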

By UniProt entry, the sequences of proteins in these tests, tags left out.
UniProt P29317, whole entry: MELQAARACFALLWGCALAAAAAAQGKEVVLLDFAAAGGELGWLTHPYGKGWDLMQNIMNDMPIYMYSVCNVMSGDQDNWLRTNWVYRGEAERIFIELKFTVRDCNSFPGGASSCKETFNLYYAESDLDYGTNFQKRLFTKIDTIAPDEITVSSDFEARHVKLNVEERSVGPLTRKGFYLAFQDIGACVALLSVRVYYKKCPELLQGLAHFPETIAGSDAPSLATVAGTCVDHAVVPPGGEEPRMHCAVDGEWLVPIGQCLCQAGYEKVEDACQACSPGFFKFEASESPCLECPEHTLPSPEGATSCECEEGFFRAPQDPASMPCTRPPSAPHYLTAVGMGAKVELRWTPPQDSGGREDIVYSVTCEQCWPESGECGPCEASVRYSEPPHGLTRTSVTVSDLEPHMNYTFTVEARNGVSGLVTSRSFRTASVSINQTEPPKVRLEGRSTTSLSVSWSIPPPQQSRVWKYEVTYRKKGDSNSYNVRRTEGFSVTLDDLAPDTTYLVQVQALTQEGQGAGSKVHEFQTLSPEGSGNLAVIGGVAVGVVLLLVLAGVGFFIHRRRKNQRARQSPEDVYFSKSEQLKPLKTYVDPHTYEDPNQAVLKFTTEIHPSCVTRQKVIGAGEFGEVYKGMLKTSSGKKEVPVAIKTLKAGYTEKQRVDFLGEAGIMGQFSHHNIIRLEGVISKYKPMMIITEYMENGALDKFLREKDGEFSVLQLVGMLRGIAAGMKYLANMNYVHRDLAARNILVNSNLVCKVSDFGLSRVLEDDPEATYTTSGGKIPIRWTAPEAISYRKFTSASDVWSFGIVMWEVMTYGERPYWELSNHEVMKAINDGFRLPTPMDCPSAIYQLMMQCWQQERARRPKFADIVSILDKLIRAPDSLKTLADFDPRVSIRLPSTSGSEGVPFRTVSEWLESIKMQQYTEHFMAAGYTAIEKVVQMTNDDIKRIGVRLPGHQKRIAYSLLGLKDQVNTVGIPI
UniProt P21860, whole entry: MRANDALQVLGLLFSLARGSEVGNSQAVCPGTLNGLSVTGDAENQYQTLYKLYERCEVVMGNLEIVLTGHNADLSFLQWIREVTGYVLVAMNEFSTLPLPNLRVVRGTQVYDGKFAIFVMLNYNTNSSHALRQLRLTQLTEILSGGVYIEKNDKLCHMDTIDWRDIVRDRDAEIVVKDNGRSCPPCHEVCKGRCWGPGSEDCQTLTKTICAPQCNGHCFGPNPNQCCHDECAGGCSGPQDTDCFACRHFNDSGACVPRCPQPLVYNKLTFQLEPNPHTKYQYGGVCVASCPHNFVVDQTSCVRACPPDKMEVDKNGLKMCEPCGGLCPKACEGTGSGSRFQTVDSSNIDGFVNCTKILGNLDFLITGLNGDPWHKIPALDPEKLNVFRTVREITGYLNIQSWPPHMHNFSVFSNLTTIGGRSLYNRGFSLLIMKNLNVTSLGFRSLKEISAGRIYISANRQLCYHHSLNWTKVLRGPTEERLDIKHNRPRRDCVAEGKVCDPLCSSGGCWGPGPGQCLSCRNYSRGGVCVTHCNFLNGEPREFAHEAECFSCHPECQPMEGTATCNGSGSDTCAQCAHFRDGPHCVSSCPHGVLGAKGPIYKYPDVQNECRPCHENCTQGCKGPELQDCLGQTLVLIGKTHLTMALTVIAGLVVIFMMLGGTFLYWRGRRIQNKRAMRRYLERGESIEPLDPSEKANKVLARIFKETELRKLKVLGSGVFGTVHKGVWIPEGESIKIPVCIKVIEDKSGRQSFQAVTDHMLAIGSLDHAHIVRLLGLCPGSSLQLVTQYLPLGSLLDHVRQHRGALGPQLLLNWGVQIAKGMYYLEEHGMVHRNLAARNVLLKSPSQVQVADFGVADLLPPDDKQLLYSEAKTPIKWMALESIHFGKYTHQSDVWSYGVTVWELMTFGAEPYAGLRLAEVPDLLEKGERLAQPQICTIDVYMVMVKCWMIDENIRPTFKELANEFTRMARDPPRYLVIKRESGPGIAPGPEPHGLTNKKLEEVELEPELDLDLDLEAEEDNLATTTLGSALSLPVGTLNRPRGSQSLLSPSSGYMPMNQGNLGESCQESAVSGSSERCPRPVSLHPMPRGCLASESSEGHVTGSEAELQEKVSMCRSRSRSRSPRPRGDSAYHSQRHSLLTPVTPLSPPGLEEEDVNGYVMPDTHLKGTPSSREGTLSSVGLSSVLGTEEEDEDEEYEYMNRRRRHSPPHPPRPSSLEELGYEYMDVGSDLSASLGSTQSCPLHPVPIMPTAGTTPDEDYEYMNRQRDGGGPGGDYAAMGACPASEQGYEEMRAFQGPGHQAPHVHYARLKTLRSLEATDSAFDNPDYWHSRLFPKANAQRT
UniProt Q15303, whole entry R711C: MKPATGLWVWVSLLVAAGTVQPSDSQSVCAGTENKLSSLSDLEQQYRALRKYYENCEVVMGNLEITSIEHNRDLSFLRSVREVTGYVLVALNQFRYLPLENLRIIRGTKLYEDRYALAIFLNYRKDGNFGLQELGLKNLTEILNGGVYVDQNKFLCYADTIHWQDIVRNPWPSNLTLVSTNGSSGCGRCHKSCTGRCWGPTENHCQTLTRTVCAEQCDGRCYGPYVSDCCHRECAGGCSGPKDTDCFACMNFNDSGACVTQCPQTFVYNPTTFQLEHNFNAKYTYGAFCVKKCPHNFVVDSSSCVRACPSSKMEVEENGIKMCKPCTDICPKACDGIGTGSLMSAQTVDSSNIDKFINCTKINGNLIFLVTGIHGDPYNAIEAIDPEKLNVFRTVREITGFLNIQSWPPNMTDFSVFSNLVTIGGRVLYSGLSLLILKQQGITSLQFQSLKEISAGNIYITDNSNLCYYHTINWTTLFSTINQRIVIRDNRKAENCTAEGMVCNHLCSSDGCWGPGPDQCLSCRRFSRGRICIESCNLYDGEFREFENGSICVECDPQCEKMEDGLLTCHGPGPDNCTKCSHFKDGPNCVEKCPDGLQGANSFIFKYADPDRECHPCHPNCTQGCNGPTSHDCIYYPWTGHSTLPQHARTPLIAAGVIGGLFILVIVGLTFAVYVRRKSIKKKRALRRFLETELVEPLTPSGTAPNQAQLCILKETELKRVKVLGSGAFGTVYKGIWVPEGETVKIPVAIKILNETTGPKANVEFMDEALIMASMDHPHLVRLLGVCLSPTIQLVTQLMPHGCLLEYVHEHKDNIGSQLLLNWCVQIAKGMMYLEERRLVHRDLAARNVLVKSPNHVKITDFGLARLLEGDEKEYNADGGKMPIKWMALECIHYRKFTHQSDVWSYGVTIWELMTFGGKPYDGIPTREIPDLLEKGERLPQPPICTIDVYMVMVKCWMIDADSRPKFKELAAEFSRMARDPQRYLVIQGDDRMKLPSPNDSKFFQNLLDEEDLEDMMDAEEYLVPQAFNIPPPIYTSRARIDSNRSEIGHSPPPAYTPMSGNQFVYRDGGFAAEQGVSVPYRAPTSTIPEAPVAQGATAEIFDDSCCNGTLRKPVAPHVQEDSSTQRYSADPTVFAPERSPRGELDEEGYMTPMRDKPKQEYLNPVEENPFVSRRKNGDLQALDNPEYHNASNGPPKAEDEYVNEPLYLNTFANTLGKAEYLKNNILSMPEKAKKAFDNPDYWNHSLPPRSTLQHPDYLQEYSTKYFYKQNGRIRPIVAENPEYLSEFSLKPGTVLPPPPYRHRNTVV

Experiments:
Assay in all cases: kinase-Nluc reporter destabilization hit call (1 = scored as downregulated) (binary); higher = compound decreases kinase abundance
Conditions in all cases: K562; 2-18 h
EGFR = EGFR (UniProt P00533)
EGFR_G719S = EGFR_G719S (UniProt P00533)
EGFR_G719S_T790M = EGFR_G719S_T790M (UniProt P00533)
EGFR_L718V = EGFR_L718V (UniProt P00533)
EGFR_L858R = EGFR_L858R (UniProt P00533)
EGFR_L861Q = EGFR_L861Q (UniProt P00533)
EGFR_T790M = EGFR_T790M (UniProt P00533)
EPHA2 = EPHA2 (UniProt P29317)
ERBB3 = ERBB3 (UniProt P21860)
[1] = target: ERBB4_R711C (clone: ERBB4_mut) (UniProt Q15303)

Measured: kinase-Nluc reporter destabilization hit call

COc1nc(-c2ccnc(NC(=O)C3CC3)c2)sc1C(N)=O [GSK-3β inhibitor 2] (10 µM)
inactive: EGFR 0 | EGFR_G719S 0 | EGFR_G719S_T790M 0 | EGFR_L718V 0 | EGFR_L858R 0 | EGFR_L861Q 0 | EGFR_T790M 0 | EPHA2 = 0 | ERBB3 = 0 | [1] 0

CNC(=O)c1cc(Oc2ccc3nc(N[C@@H]4CCCC[C@H]4O)sc3c2)ccn1 (10 µM)
inactive: EGFR 0 | EGFR_G719S 0 | EGFR_G719S_T790M 0 | EGFR_L718V 0 | EGFR_L858R 0 | EGFR_L861Q 0 | EGFR_T790M 0 | EPHA2 = 0 | ERBB3 = 0 | [1] 0

CCOC(=O)c1c2c3c(cccc3[nH]c1=O)C(=O)c1ccccc1-2 (10 µM)
inactive: EGFR 0 | EGFR_G719S 0 | EGFR_G719S_T790M 0 | EGFR_L718V 0 | EGFR_L858R 0 | EGFR_L861Q 0 | EGFR_T790M 0 | EPHA2 = 0 | ERBB3 = 0 | [1] 0

COc1cc(N2CCC(N(C)C)CC2)ccc1Nc1ncc(Cl)c(Nc2ccccc2P(C)(C)=O)n1 (2.5 µM)
inactive: EGFR 0 | EGFR_G719S 0 | EGFR_G719S_T790M 0 | EGFR_L718V 0 | EGFR_L858R 0 | EGFR_L861Q 0 | EGFR_T790M 0 | EPHA2 = 0 | ERBB3 = 0 | [1] 0

C=CC(=O)N1CCC[C@@H](n2nc(C(=O)Nc3ccc(CC(=O)N(C)C)c(C)c3C)c3c(N)ncnc32)C1 (10 µM)
inactive: EGFR 0 | EGFR_G719S 0 | EGFR_G719S_T790M 0 | EGFR_L718V 0 | EGFR_L858R 0 | EGFR_L861Q 0 | EGFR_T790M 0 | EPHA2 = 0 | ERBB3 = 0 | [1] 0

COc1nc(-c2cccc3c2OCCO3)ccc1Nc1ccc(CN(C)C)cc1 [RAS inhibitor Abd-7] (10 µM)
inactive: EGFR 0 | EGFR_G719S 0 | EGFR_G719S_T790M 0 | EGFR_L718V 0 | EGFR_L858R 0 | EGFR_L861Q 0 | EGFR_T790M 0 | EPHA2 = 0 | ERBB3 = 0 | [1] 0

Cc1cc2ncc(-c3ccccc3)nc2cc1C (10 µM)
inactive: EGFR 0 | EGFR_G719S 0 | EGFR_G719S_T790M 0 | EGFR_L718V 0 | EGFR_L858R 0 | EGFR_L861Q 0 | EGFR_T790M 0 | EPHA2 = 0 | ERBB3 = 0 | [1] 0

O=C1NC(=O)C(=Cc2ccc3c(c2)OCO3)S1 (10 µM)
inactive: EGFR 0 | EGFR_G719S 0 | EGFR_G719S_T790M 0 | EGFR_L718V 0 | EGFR_L858R 0 | EGFR_L861Q 0 | EGFR_T790M 0 | EPHA2 = 0 | ERBB3 = 0 | [1] 0

CC[C@H](Nc1ncnc2[nH]cnc12)c1oc2ccccc2c(=O)c1-c1cccc(F)c1 [Tenalisib] (10 µM)
inactive: EGFR 0 | EGFR_G719S 0 | EGFR_G719S_T790M 0 | EGFR_L718V 0 | EGFR_L858R 0 | EGFR_L861Q 0 | EGFR_T790M 0 | EPHA2 = 0 | ERBB3 = 0 | [1] 0

O=C1NCCCc2c1oc1ccc(O)cc21 (10 µM)
inactive: EGFR 0 | EGFR_G719S 0 | EGFR_G719S_T790M 0 | EGFR_L718V 0 | EGFR_L858R 0 | EGFR_L861Q 0 | EGFR_T790M 0 | EPHA2 = 0 | ERBB3 = 0 | [1] 0

O=C(Nc1ccc(Cl)cc1)C1CCCN(C(=O)c2cccc(-c3ccco3)c2)C1 (stereo not given) (2.5 µM)
inactive: EGFR 0 | EGFR_G719S 0 | EGFR_G719S_T790M 0 | EGFR_L718V 0 | EGFR_L858R 0 | EGFR_L861Q 0 | EGFR_T790M 0 | EPHA2 = 0 | ERBB3 = 0 | [1] 0

Cc1cnc(Nc2ccc(N3CCN(C)CC3)cc2)nc1Nc1cccc(S(=O)(=O)NC(C)(C)C)c1 (2.5 µM)
inactive: EGFR 0 | EGFR_G719S 0 | EGFR_G719S_T790M 0 | EGFR_L718V 0 | EGFR_L858R 0 | EGFR_L861Q 0 | EGFR_T790M 0 | EPHA2 = 0 | ERBB3 = 0 | [1] 0

O=c1ccc2ccc(O)c(O)c2o1 [Daphnetin] (10 µM)
inactive: EGFR 0 | EGFR_G719S 0 | EGFR_G719S_T790M 0 | EGFR_L718V 0 | EGFR_L858R 0 | EGFR_L861Q 0 | EGFR_T790M 0 | EPHA2 = 0 | ERBB3 = 0 | [1] 0

Cc1cc(C(C)Nc2ccccc2)c2nc(N3CCOCC3)cc(=O)n2c1 (stereo not given) (10 µM)
inactive: EGFR 0 | EGFR_G719S 0 | EGFR_G719S_T790M 0 | EGFR_L718V 0 | EGFR_L858R 0 | EGFR_L861Q 0 | EGFR_T790M 0 | EPHA2 = 0 | ERBB3 = 0 | [1] 0

CC(C)N(C)c1nc2cc(C(=O)O)ccc2nc1-c1ccc(F)cc1 (10 µM)
inactive: EGFR 0 | EGFR_G719S 0 | EGFR_G719S_T790M 0 | EGFR_L718V 0 | EGFR_L858R 0 | EGFR_L861Q 0 | EGFR_T790M 0 | EPHA2 = 0 | ERBB3 = 0 | [1] 0

COc1cc(N2CCC(O)CC2)ccc1Nc1cc(Nc2ccccc2S(=O)(=O)C(C)C)c2cc[nH]c2n1 (10 µM)
inactive: EGFR 0 | EGFR_G719S 0 | EGFR_G719S_T790M 0 | EGFR_L718V 0 | EGFR_L858R 0 | EGFR_L861Q 0 | EGFR_T790M 0 | EPHA2 = 0 | ERBB3 = 0 | [1] 0

COC1(C(=O)N[C@@H](C)c2ccc(-n3cc(F)cn3)nc2)CCC(c2nc(C)cc(Nc3cc(C)[nH]n3)n2)CC1 (stereo partly drawn) [trans-Pralsetinib] (2.5 µM)
inactive: EGFR 0 | EGFR_G719S 0 | EGFR_G719S_T790M 0 | EGFR_L718V 0 | EGFR_L858R 0 | EGFR_L861Q 0 | EGFR_T790M 0 | EPHA2 = 0 | ERBB3 = 0 | [1] 0

Reprinted at random: two entries already listed
COc1cc(N2CCC(O)CC2)ccc1Nc1cc(Nc2ccccc2S(=O)(=O)C(C)C)c2cc[nH]c2n1 (10 µM)
inactive: EGFR 0 | EGFR_G719S 0 | EGFR_G719S_T790M 0 | EGFR_L718V 0 | EGFR_L858R 0 | EGFR_L861Q 0 | EGFR_T790M 0 | EPHA2 = 0 | ERBB3 = 0 | [1] 0

COC1(C(=O)N[C@@H](C)c2ccc(-n3cc(F)cn3)nc2)CCC(c2nc(C)cc(Nc3cc(C)[nH]n3)n2)CC1 (stereo partly drawn) [trans-Pralsetinib] (2.5 µM)
inactive: EGFR 0 | EGFR_G719S 0 | EGFR_G719S_T790M 0 | EGFR_L718V 0 | EGFR_L858R 0 | EGFR_L861Q 0 | EGFR_T790M 0 | EPHA2 = 0 | ERBB3 = 0 | [1] 0
